These are yes or no findings as the source states them, for the method shown. Binding seen in cells or lysates may run through a third protein. Some entries that bind do so weakly or less than the wild type.
Target: T1, FAS (human (endogenous in HT29)), P25445
T1 chain: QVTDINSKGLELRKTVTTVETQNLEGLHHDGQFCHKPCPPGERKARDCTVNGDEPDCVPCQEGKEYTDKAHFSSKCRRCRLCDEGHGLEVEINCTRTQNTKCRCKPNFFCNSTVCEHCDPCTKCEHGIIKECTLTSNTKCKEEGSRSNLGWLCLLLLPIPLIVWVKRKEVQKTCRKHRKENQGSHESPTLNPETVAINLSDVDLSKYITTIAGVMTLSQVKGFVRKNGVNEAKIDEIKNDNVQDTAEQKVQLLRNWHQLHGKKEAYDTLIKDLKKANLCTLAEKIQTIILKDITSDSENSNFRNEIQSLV
Assay: co-IP; FAS immunocomplex from whole cell lysate of crocetin-treated HT29 cells purified with anti-FAS antibody and protein A-Sepharose beads; immunoblotted with anti-FADD antibody
Details: remark: other sources report otherwise

B1: FAS-associated death domain protein (FADD), Q13158 1-208 (protein)
chain: MDPFLVLLHSVSSSLSSSELTELKFLCLGRVGKRKLERVQSGLDLFSMLLEQNDLEPGHTELLRELLASLRRHDLLRRVDDFEAGAAAGAAPGEEDLCAAFNVICDNVGKDWRRLARQLKVSDTKIDSIEDRYPRNLTERVRESLRIWKNTEKENATVAHLVGALRSCQMNLVADLVQEVQQARDLQNRSGAMSPMSWNSDASTSEAS
B1 was tested, and the binding was “binds”.

— PMC5020693
